# According to the supplement of paper PMC3334620:
# Whole data set: some 33,000 sequences, median “E-score (-0.5 to 0.5)” near -0.0034, cut for the highest 2% near 0.25. The list shows a part of the results.
# Target: T1, Yap3 (UniProt P38749)
# T1 sequence: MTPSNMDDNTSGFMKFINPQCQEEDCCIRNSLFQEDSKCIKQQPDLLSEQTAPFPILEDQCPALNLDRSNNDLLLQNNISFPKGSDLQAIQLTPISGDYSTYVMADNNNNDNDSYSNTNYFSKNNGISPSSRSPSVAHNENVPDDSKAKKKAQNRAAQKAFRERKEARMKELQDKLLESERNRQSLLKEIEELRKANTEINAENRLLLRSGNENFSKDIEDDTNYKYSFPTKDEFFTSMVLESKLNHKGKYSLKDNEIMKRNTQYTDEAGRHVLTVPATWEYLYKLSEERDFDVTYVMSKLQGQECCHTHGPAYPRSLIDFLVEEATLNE
# Test: PBM E-score (8-mer binding enrichment) (E-score (-0.5 to 0.5)); higher = stronger / more preferred TF binding
# Conditions: protein concentration: 100 nM; construct: GST-full length
# Method: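 Universal 'all 10-mer' protein binding microarrays (Agilent AMADID 015681) probed with GST-tagged S. cerevisiae TFs (full-length or DBD) made by in vitro transcription/translation (PURExpress), about 100-200 nM. Bound TF was detected with fluorescent anti-GST. Each ungapped 8-mer (which stands for itself and its reverse complement) is scored by the PBM enrichment score (E-score), a modified Wilcoxon-Mann-Whitney statistic from -0.5 to +0.5, computed with the Universal PBM Analysis Suite. Scale: above 0.35 generally sequence-specific binding.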
row,Sequence,PBM E-score
1,ATTGCTGG,-0.0977
2,TATCCACA,0.142
3,CTATGGAC,0.0426
4,ACGTCTTG,-0.0559
5,AGTTTCCA,-0.0635
6,AACCCTGC,-0.128
7,ATGTGTCA,0.161
8,ACAATCCT,0.00872
9,CACATATG,-0.0126
10,CTGGCTAC,-0.089
11,CGGGCTGC,-0.254
12,GATTTATA,0.239
13,AATAATCC,0.109
14,ACCCGCCC,-0.0921
15,AACTCTGG,-0.0706
16,GTACCTAA,-0.0819
17,CGTAGCTA,-0.05
18,CATTCTAC,0.0585
19,CTTAGAAG,-0.0666
20,AACGACTT,-0.144
21,AGCGTATG,-0.0269
22,GACTCCTA,-0.0436
23,AGCATCGC,-0.22
24,AAACGTTG,-0.0223
25,CCCGGGTA,-0.103

row,Sequence,PBM E-score
1,CAGTCATG,-0.152
2,CAATACTA,0.0409
3,GTAGGCAA,0.00287
4,AGAGGCTA,-0.0845
5,AACATACA,0.128
6,CGGCTTAA,0.168
7,ACCGTGCG,-0.0516
8,GTTCCTCA,-0.18
9,AGCAATAG,-0.183
10,CCCCACAG,-0.21
11,GATCTACC,0.00102
12,ACGTCGTG,0.186
13,CACGGTAG,-0.0447
14,ACCACTTG,-0.141
15,CAAGGATA,0.00319
16,CGCACTAC,-0.00213
17,CCAGCTTC,-0.117
18,CCCCTACG,-0.322
19,CATTATGA,0.157
20,CACTAGTG,0.0852
21,CCCAAAAC,0.0651
22,AGCCCCTC,-0.159
23,GTCGTTAA,-0.0202
24,AGACGGGG,-0.124
25,GGCGAAGA,-0.231

# As entered above.
# PBM E-score, CTGGCTAC reads -0.089
# PBM E-score, AGCATCGC reads -0.22

# Some of the entries so far, with bars between the fields:
row | Sequence | PBM E-score
16 | CGCACTAC | -0.00213
17 | CCAGCTTC | -0.117
18 | CCCCTACG | -0.322
19 | CATTATGA | 0.157
20 | CACTAGTG | 0.0852
21 | CCCAAAAC | 0.0651

# (list continues)

row,Sequence,PBM E-score
1,TAATTATA,0.285
2,CTGAATAA,0.195
3,ACTATTGA,0.122
4,GAGTATGA,0.0893
5,AGTGGATA,0.0869
6,TCCGATAA,-0.0509
7,ATCGCTTA,0.0663
8,GACGGATA,0.134
9,AGCACATC,0.00998
10,AGATTCGG,0.149
11,CGGGGGAG,-0.331
12,TGCACTAA,0.208
13,AGAGGTAC,-0.248
14,TCTGCGCA,-0.0675
15,CTCATAAG,0.0483
16,ACCAGGAG,-0.207
17,ACAAGACC,-0.152
18,AAGTAGAA,0.0999
19,CTCGAAGC,-0.173
20,CGAAATAG,-0.116
21,ATATAGTA,0.264
22,GCCGCGAA,-0.114
23,CTAATAGA,0.0995
24,GGAACGAC,-0.133
25,GACGAAGC,-0.116

row,Sequence,PBM E-score
1,CGTCCGAC,-0.155
2,CATCCCCC,-0.33
3,ACATGAGT,-0.0432
4,GATTTTAC,0.161
5,ACTTGAGC,-0.0924
6,GTCGTGGA,-0.0143
7,AATTCCTC,-0.0469
8,CCTATATC,0.0538
9,AATAGACT,0.143
10,ACTCTCCC,0.0233
11,ATCGGGGC,-0.236
12,ACCAAGGA,0.0109
13,CAGTACTA,0.0778
14,CCGTGTAC,0.124
15,ATAACCCC,-0.121
16,GATCTTGC,0.154
17,CGACCAGA,-0.0156
18,ATCAGTTG,0.132
19,CTTCCATC,-0.0889
20,GACATAGC,0.05
21,AAGCGCGA,0.0646
22,GAGCGATC,0.0216
23,TCGGCAAA,-0.0204
24,ATCGCACG,-0.113
25,AATATCCA,0.165

row,Sequence,PBM E-score
1,AGTATGAC,0.122
2,TCACCCCA,0.0771
3,AGGTTGGG,-0.103
4,AATCCACA,0.075
5,CCGTCAAC,-0.0784
6,CACCCCAG,-0.184
7,AAAATGTG,0.121
8,CCGTGATA,-0.0839
9,GCGATGAC,0.0826
10,GAGTGGAC,-0.0806
11,ATATAGAT,0.104
12,AACCCACG,-0.0739
13,GTCGTGTA,0.0599
14,CACTCTTC,-0.0158
15,ATCGGCAT,0.108
16,TAGCGTCA,-0.0474
17,CCGGCCGA,-0.214
18,CCATAGCC,-0.12
19,CAGCCCCG,-0.213
20,CGACAGCC,-0.0758
21,AAGACATC,-0.141
22,CACGCAGG,-0.0824
23,GTTAATGA,0.133
24,GGAAGATA,0.185
25,CGCACCTC,-0.186

row,Sequence,PBM E-score
1,AAGCTAGA,-0.00382
2,ATAGCTGA,-0.0565
3,GATTTCCA,0.0257
4,AAACCAGG,0.156
5,ACCCTCAC,-0.158
6,GTAGCAAA,0.185
7,CATGTTAC,0.149
8,CAGTTGCA,-0.13
9,GTAGCGAC,-0.112
10,GCATTGAA,0.0402
11,CGACATTA,0.203
12,GTAGCCTA,-0.236
13,CGTAAAAC,-0.0349
14,ACTCTGAC,-0.138
15,AGCCAGAC,-0.0513
16,AGGTAGTC,-0.0788
17,GGCCTAGA,-0.0411
18,ATGATTTC,0.24
19,ATCCTGGA,-0.0134
20,GGTCCATA,-0.143
21,CCCCCAGG,-0.397
22,GTGAAACA,0.113
23,GGGGGATA,-0.0397
24,AAATGTCC,-0.119
25,AAATTCCC,-0.164

# Not a retest: entries from further up.
row,Sequence,PBM E-score
2,CAATACTA,0.0409
3,GTAGGCAA,0.00287
4,AGAGGCTA,-0.0845
5,AACATACA,0.128
6,CGGCTTAA,0.168

# More entries.

row,Sequence,PBM E-score
1,AATGGCGT,0.015
2,GCGCTACA,0.0265
3,AAGTAAGA,0.11
4,AAGGCACG,-0.0196
5,CGTGTCCC,-0.106
6,GGCCAGGA,-0.0419
7,ACTCATCG,0.0599
8,GACAGGAC,-0.128
9,ACACCCAT,0.127
10,CATCTTTC,0.0657
11,AACTTACA,0.101
12,CATAAATG,-0.0565
13,GCTAACGA,0.104
14,CTTAGCGA,-0.0129
15,GCGTTGCC,-0.0698
16,AATGAGTC,0.0812
17,CAATGTCG,0.142
18,ACTTACAC,-0.0455
19,GACCATTA,0.0847
20,AGCGCCTG,-0.167
21,TACACAGA,-0.0403
22,CCTTACAC,0.0329
23,TACCGAAA,0.0737
24,AACAAGCG,0.178
25,ATGCTTAG,0.17

row,Sequence,PBM E-score
1,AAGAAGCT,-0.0904
2,AACATGGT,0.0858
3,GGAGCTAA,-0.0484
4,CAAACTCC,-0.0365
5,GATAGGCA,0.00307
6,AGAGACAA,-0.077
7,TGAGCTAA,-0.0651
8,AGGATTAA,0.177
9,CGCGTGAA,0.0861
10,GAACTGGA,0.0625
11,TATGAAAA,0.225
12,ATGGTCAG,0.202
13,GCCGACCA,-0.174
14,CATAGGGG,-0.078
15,GGACGCCA,-0.117
16,AGGTAAGG,0.0835
17,CGAGCCGC,0.0378
18,ATCCTAAC,0.124
19,AGACTACT,0.0569
20,ACAAATGA,0.0725
21,TAGGAAAA,0.0741
22,CAATATTA,0.226
23,CTCCTAAA,-0.21
24,ACCGCTTA,-0.038
25,CCGTCTTA,-0.151

row,Sequence,PBM E-score
1,CCCTGTCC,-0.276
2,AATGAAGC,0.0863
3,GACTTGAC,-0.115
4,CAGCAAGA,0.142
5,CTGCAAAC,-0.12
6,CGCCATTA,0.023
7,ATGTAATC,0.121
8,GCGGCAAA,0.00339
9,AATCCCCC,-0.229
10,CGAATGTA,0.0967
11,AATCGCTG,-0.0893
12,AGAGCTGA,-0.13
13,AGAGATTG,0.0916
14,AGTCGGCA,-0.0266
15,GCGCAGCC,-0.256
16,AGGCGGAG,-0.0405
17,ATTGTTCC,0.13
18,AAGCTCGG,-0.0555
19,AAGTCACT,0.0396
